This note sets out measurements from the supplement of paper PMC7024190.

This is one part of the list. Single values are uncertain here, since repeats match poorly.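 The cells were human embryonic kidney cells carrying a Renilla luciferase gene, driven by the HSV-TK promoter, on a plasmid put in briefly by transfection. This is the first-round screen of about ten thousand compounds, looking for ones that raise reporter output.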

The test system of the test is HEK 293FT. Briefly: log relative Renilla luciferase luminescence (reporter expression vs reference, reference not stated) (log (base not stated)); higher = higher recombinant reporter expression. Conditions: 10 µM; time after transfection 48 h. On the procedure:
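HEK 293FT cells transiently transfected with pRL-TK (Renilla luciferase) were treated with compounds at 10 uM and luminescence was read about 42 h later. Values are log relative Renilla luminescence (log base and reference not stated). Single-pass screen; 2080 natural products library.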
For the compound `COc1c(-c2ccc(O)c(O)c2)oc2cc(O)cc(O)c2c1=O` [3-O-Methylquercetin], the log was -0.195.
Regarding `COc1c(O)cc2c(=O)oc3c(OC)c(O)cc4c(=O)oc1c2c34` [3,3'-Di-O-methylellagic acid], the log was determined as 0.143.
The value for `COc1ccc(C2CC(=O)c3c(OC)cc(OC)cc3O2)cc1` (stereo not given) [Naringenin trimethyl ether] was 0.163.
Then `CC(=O)O[C@@H](CC1=C(O)C(=O)OC1)[C@]1(C)[C@H]2CCC=C(C)[C@]2(C)[C@@H](OC(=O)c2cccnc2)[C@H](OC(=O)c2ccccc2)[C@]1(C)O` [Scutebata B], with 0.0279.
On to `C=C(CO)[C@@H]1CC[C@@H]2[C@]3(CC[C@]4(C)[C@@H]([C@H](C)CC/C=C(\C)C=O)CC[C@@]24C)C[C@]13CCC(=O)O` [Coronalolic acid], for which the log was determined as 0.0016.
`COc1c(O)cc(O)c2c(=O)c3ccccc3n(C)c12` [1,3-Dihydroxy-4-methoxy-10-methylacridin-9(10H)-one]: the log is -7.71e-05.
On to `COc1cc(/C=C/C=O)cc(OC)c1O` [Sinapaldehyde], for which the log is -0.0686.
For `C=C1CC[C@H]2O[C@]2(C)CC[C@@H]2[C@@H]1CC2(C)C` [Caryophyllene oxide], the log is -0.167.
As to `COc1cc2cc(CC=C(C)C)c(=O)oc2cc1O` [7-Hydroxy-6-methoxy-3-prenylcoumarin], the log was found to be 0.0016.
Turning to `O=c1c(O[C@@H]2O[C@H](CO)[C@@H](O)[C@H](O)[C@H]2O)c(-c2ccc(O)cc2)oc2cc(O)cc(O)c12` [Astragalin], the log was -0.198.
Then `C[C@@H]1CC[C@]2(C(=O)O)CC[C@]3(C)C(=CC[C@@H]4[C@@]5(C)CCC(=O)C(C)(C)[C@@H]5[C@H](O)C[C@]43C)[C@@H]2[C@]1(C)O` [6,19-Dihydroxyurs-12-en-3-oxo-28-oic acid], with -0.619; and `COc1c(OC(C)=O)ccc(OC(C)=O)c1-c1cc(=O)c2c(OC(C)=O)cc(OC(C)=O)c(OC)c2o1` [Viscidulin III tetraacetate], with -0.177; and `CC(=O)[C@H]1CC[C@H]2[C@@H]3CC=C4C[C@@H](O)CC[C@]4(C)[C@H]3CC[C@]12C` [Pregnenolone], with -0.0636.
On to `COc1ccc2ccc(=O)oc2c1C(OC(C)=O)C(=O)C(C)C` (stereo not given) [Hainanmurpanin], for which the log is -0.157.
Then `O=C(O)[C@@H]1CCCN1` [Proline], with 0.115; and `COc1cc(C[C@H]2CO[C@H](c3ccc(O)c(OC)c3)[C@H]2CO)ccc1O` [(+)-Lariciresinol], with -0.282.
Then `Oc1ccc(C=Cc2cc(O)cc3c2C(c2cc(O)cc(O)c2)C(c2ccc(O)cc2)O3)cc1` (stereo not given) [Viniferin], with 0.0171; and `CC(C)(O[C@@H]1O[C@H](CO[C@@H]2OC[C@](O)(CO)[C@H]2O)[C@@H](O)[C@H](O)[C@H]1O)[C@H](O)COc1c2occc2cc2ccc(=O)oc12`, with 0.154.
Consider `CC(C)C[C@@H]1c2c(O)c(C=O)c(O)c(C=O)c2O[C@@H](c2c(O)c(C=O)c(O)c(C=O)c2O)[C@@H]1C(C)C` [Sideroxylonal A], for which the log was -0.253.
Regarding `CC(=O)c1ccc(O)cc1O` [2',4'-Dihydroxyacetophenone], the log was -0.0982.
As for `COc1c(OC)c(OC)c2oc(=O)ccc2c1OC` [5,6,7,8-Tetramethoxycoumarin], the log was -0.159.
On to `CO[C@H]1CC[C@@]2(C)C(=CC[C@H]3[C@@H]4CC[C@H]([C@H](C)N(C)C)[C@@]4(C)CC[C@@H]32)C1` [Pachyaximine A], for which the log was -0.298.
The value for `CC(C)[C@@H](C)/C=C/[C@@H](C)[C@H]1CC[C@H]2C3=CC[C@H]4C[C@@H](O)CC[C@]4(C)[C@H]3CC[C@]12C` [Stellasterol] was 0.0391; that for `CC(=O)Oc1cc(OC(C)=O)c2c(c1)O[C@H](c1ccc(OC(C)=O)c(OC(C)=O)c1)[C@@H](OC(C)=O)C2` [Catechin pentaacetate] was 0.0912; that for `Cc1cc2c(cc1O)C13CCCC(C)(C)C1CC2OC3` (stereo not given) [Przewalskin] was -0.179.
Then `C=C(C)[C@@H]1CC[C@]2(C)CC[C@]3(C)[C@H](CC[C@@H]4[C@@]5(C)CC[C@H](O)C(C)(C)[C@@H]5CC[C@]43C)[C@@H]12` [Lupeol], with -0.172.
In the case of `C=C1CCCc2c(ccc3c2C(=O)C(=O)c2c(C)coc2-3)/C(C)=C/CCc2c1ccc1c2C(=O)C(=O)c2c(C)coc2-1` [Neoprzewaquinone A], the log is -0.0547.
The value for `O=C/C=C/c1ccccc1O` [3-(2-Hydroxyphenyl)-2-propenal] was -0.0654; that for `COc1cc(C[C@H]2COC(=O)[C@@H]2Cc2ccc(O)c(OC)c2)ccc1O` [Matairesinol] was -0.142; that for `CC(C)(O)[C@H](O)COc1c2occc2cc2ccc(=O)oc12` [Heraclenol] was 0.226.
For the compound `CC1(C(=O)O)CCCC2(C)C3CCC4CC3(CCC12)CC4C(=O)O` (stereo not drawn) [ent-kauran-17,19-dioic acid], the log was 0.27.
Turning to `CCCCCCCCCCCCCCCC(=O)O[C@H]1CC[C@]2(C)[C@H]3CC=C4[C@@H]5CC(C)(C)CC[C@]5(CO)CC[C@@]4(C)[C@]3(C)CC[C@H]2C1(C)C` [Erythrodiol 3-palmitate], the log was -0.0153.
On to `COc1cc([C@H]2c3cc(O)c(OC)cc3C[C@H]3COC(C)(C)OC[C@@H]32)ccc1O` [9,9'-O-isopropyllidene-isolariciresinol], for which the log is -0.0748.
The value for `O=C(O)c1c[nH]c2ccccc12` [1H-Indole-3-carboxylic acid] was -0.121.
The value for `CC(C)[C@H]1CC[C@@H]2[C@]1(C)CC[C@]1(C)[C@H]3CC=C4[C@@H](CC[C@H](O)C4(C)C)[C@]3(C)CC[C@@]21C` [Simiarenol] was -0.204; that for `COC(=O)C1=COC(OC2OC(CO)C(O)C(O)C2O)C2C(C)(O)CC(O)C12O` (stereo not drawn) [6beta-Hydroxyipolamiide] was 0.286.
Then `OCC1CCC2(CCCCO2)O1` (stereo not given) [1,6-Dioxaspiro[4.5]decan-2-methanol], with 0.146.
For the compound `C=C(C(=O)O)[C@H]1C=C2[C@@H](C)[C@@H](O)[C@H](O)C[C@]2(C)CC1` [2,3-Dihydroxypterodontic acid], the log worked out at 0.212.
On to `C/C(=C\CO)CC/C=C(\C)C(=O)O` [Foliamenthoic acid], for which the log was -0.0147.
Then `C=C1C(=O)O[C@@H]2C[C@H](C)[C@@]3(O)C[C@H](O)[C@@](C)(C[C@@H](OC(=O)C(C)C)[C@@H]12)O3` [Tagitinin A], with 0.0705.
